According to PMC6514445, “Enterococcal PcfF Is a Ribbon-Helix-Helix Protein That Recruits the Relaxase PcfG Through Binding and Bending of the oriT Sequence” (Frontiers in Microbiology, 2019):

What was measured:
[1] = biological target: T1, PcfF1-54 (Enterococcus faecalis plasmid pCF10) (UniProt Q5G3N6); test: EMSA (DNA bending); conditions: smeary shift; EMSA: 30 nM DNA, 10 mM Tris/HCl pH 7.5, 200 mM NaCl (150 mM NaCl with PcfG), 15 min at room temperature; 20% native PAGE in TAE pH 8.0 at 4 C; recombinant protein; residues 1-54; protein details: N-terminal GST, 3C-cleaved (4 extra residues left)
T1 sequence (looked up): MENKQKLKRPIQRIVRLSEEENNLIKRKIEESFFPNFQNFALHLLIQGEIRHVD

PcfF + PcfG = test: EMSA; conditions: no supershift by 300 nM PcfG, PcfF-oriT complex itself forms; EMSA: 30 nM DNA, 10 mM Tris/HCl pH 7.5, 200 mM NaCl (150 mM NaCl with PcfG), 15 min at room temperature; 20% native PAGE in TAE pH 8.0 at 4 C; recombinant protein; label: 5' FITC on sense strand
PcfF1-54 + PcfG = test: EMSA; conditions: no supershift by 300 nM PcfG, PcfF1-54-oriT complex itself forms; EMSA: 30 nM DNA, 10 mM Tris/HCl pH 7.5, 200 mM NaCl (150 mM NaCl with PcfG), 15 min at room temperature; 20% native PAGE in TAE pH 8.0 at 4 C; recombinant protein; label: 5' FITC on sense strand

Sequence	binding result [1]	binding result (PcfF + PcfG)	binding result (PcfF1-54 + PcfG)
GCGAAATATTGGTACCCCATGGAATCGAGGGATCCTCTAGTCGCAACATGCTAGCATGTTGCTCCGCTTGCAAAAAGAAAAGTCGACACGCGTAGATCTGCTAGCATCGATCCATGGACT (double strand) [oriT middle 120 bp]	binds		
GTCTCGAGTTTAAAGATATCCAGCTGCCCGGGAGGCCTTCGCGAAATATTGGTACCCCATGGAATCGAGGGATCCTCTAGTCGCAACATGCTAGCATGTTGCTCCGCTTGCAAAAAGAAA (double strand) [oriT 3' 120 bp]	binds		
TCGCAACATGCTAGCATGTTGCTCCGCTTGCAAAAAGAAA (double strand) [oriT 40 bp]		no binding	no binding

For some of these results: Negatives hold for the conditions tested. For some of these results: The exact form of at least one protein or probe is not confirmed. For some of these results: At least one verdict rests on a figure or table, not on a statement of the authors. For some of these results: Tags and fusion partners may be left off the protein sequences shown.
